Binding data for one substance are collected here from article PMC8334859, “MIR156-Targeted SPL9 Is Phosphorylated by SnRK2s and Interacts With ABI5 to Enhance ABA Responses in Arabidopsis” (Frontiers in Plant Science, 2021).

Results are given in words; binding and its absence hold for the method and conditions named. Binding seen in cells or lysates may run through a third protein. Binding can be weak; no strength is given. Where a sequence is shown, tags or fusion partners need not be part of it.

For experiment [1], the target named is T1, nLUC-ABI5 (Arabidopsis thaliana) (UniProt Q9SJN0).
T1 sequence: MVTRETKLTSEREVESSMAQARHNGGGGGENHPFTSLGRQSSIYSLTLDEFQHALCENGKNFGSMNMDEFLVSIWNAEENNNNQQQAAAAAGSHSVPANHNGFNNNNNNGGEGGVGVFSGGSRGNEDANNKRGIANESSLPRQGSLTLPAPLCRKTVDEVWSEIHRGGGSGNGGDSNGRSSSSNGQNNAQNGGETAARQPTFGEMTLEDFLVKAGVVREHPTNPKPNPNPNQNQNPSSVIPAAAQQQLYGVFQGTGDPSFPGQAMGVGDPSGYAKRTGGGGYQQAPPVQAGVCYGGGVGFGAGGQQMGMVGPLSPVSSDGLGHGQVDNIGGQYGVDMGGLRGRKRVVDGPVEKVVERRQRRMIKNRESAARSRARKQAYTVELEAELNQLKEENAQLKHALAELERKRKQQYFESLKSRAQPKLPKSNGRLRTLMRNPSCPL
As to the kind of experiment: split reporter; firefly luciferase complementation imaging (LCI); nLUC and cLUC fusions co-injected by Agrobacterium GV3101 into N. benthamiana leaves; LUC activity imaged with NightSHADE LB 985.

The target of experiment [2] is T2, nLUC-SnRK2.6 (Arabidopsis thaliana) (UniProt Q940H6).
T2 sequence: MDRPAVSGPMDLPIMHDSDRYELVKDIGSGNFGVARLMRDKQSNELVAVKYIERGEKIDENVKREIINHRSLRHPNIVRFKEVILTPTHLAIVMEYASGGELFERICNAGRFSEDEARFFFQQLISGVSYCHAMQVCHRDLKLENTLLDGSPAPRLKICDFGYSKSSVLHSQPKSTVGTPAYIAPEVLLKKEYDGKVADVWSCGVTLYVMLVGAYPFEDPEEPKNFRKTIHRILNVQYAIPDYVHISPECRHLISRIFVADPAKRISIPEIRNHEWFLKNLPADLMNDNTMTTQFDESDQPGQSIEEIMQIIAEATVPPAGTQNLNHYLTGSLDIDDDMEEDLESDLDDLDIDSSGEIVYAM
The experiment is described as above.

Consider “SPL9 C (carboxyl-terminal truncated version), fused to cLUC (Arabidopsis thaliana) (domain or fragment)”, for which the binding entry in experiment [1] and in experiment [2] was “binds” in each case.
